From PubChem BioAssay AID1347426 (Functional Genomics Laboratory (NCATS/FGL), 2020) come the findings set out here.

The whole screen tested about 31,000 sequences, of which about 1,400 (4.5%) were called active.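 How the source made its calls: active means median seed-adjusted z-score above 1 or below -1; inactive means the rest.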 Some of the results follow.

The assay can be described thus: Novel Modifiers of Survival Motor Neuron (SMN) Protein: Gene Identification via Genome-wide siRNA Screen.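 Further: luminescence tracks full-length SMN protein made from the SMN2 reporter.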 The settings on record: HEK293T SMN2-luciferase reporter, siRNA knockdown, 72 h; actives lie on both sides. In short, it runs like this:
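Luciferase signal, proportional to full-length SMN made from an SMN2 cDNA reporter in stable HEK293T cells, was read 72 h after siRNA reverse transfection. Values were expressed as MAD scores after non-targeting-control normalization and log10 conversion; seed analysis flagged off-targets.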
A general note: Reporter assays use an easily measured gene product as a stand-in for the process of interest.
For the sequence GCAUCUUGGAUUACACGGATT against LILRB2, the median seed-adjusted z-score was inactive: -0.911.
On to CGAAAAACCAUAGACUACATT against WDR33, for which the median seed-adjusted z-score was active: 3.27.
For GGAUGGAAAUAAGGCUAAATT against RAB18, the median seed-adjusted z-score is inactive: 0.
Consider CCAGAGUUCCUCCACAACATT against FOXP3, for which the median seed-adjusted z-score is inactive: -0.421.
For the sequence CAGAAGGUAUAGUAGAUUUTT against GSTA5, the median seed-adjusted z-score is inactive: 0.523.
Take GAUUAAUGCUUGGGUUGAATT against SERPINB11: the median seed-adjusted z-score was inactive: 0.
As to GCAAUAUAAAGGAACCUUATT against SLC25A31, the median seed-adjusted z-score was inactive: -0.615.
With GGCUUGACCUUUUUCGUCUTT against DYNC2H1, the median seed-adjusted z-score is inactive: -0.613.
To GAUUGUCCUGUAAUCGCUATT against TXNDC4 belongs inactive: 0.351.
Consider CGAUCAAUCCAACCGCACATT against MEIS3, for which the median seed-adjusted z-score is inactive: 0.207.
To GGGUAAUGAUGGACUCCCATT against CUX2 belongs inactive: 0; to GGAUUUACCUCAAGCUUAUTT against OMG, inactive: 0.273.
Take UCAGCUGUAUCGACCAGAATT against MYL7: the median seed-adjusted z-score was active: -1.21.
AGCUGUCGCUCUACAAGAATT against PSTPIP1: the median seed-adjusted z-score is inactive: -0.342.
In the case of CAAAAUCCCAUAAUAAGAATT against TRIM64, the median seed-adjusted z-score was inactive: -0.024.
To GGCUUACAUUGUCUCUAGUTT against PRKRIR belongs inactive: 0; to CGGUUUGCAUCUGAACGGATT against SNTG2, inactive: 0.603; to GGAGAACCAUAGAAAACCATT against RIPK3, inactive: 0.123.
Turning to GAGACAAAUUACUCAAGGATT against PAX3, the median seed-adjusted z-score was inactive: 0.0223.
On to CGAAAGCUACUGAACUUCATT against CNOT6L, for which the median seed-adjusted z-score is inactive: -0.0259.
On to GAAUGGACCGUCUUCAAUATT against CLCN5, for which the median seed-adjusted z-score was inactive: 0.856.
With AGAAGGUUCGGGAAGAAUATT against CD97, the median seed-adjusted z-score is inactive: 0.202.
Regarding GUAUGUUAACCAAACAGAUTT against CD28, the median seed-adjusted z-score is inactive: -0.993.
Take GACUGCACCUCAAACGAUUTT against USP44: the median seed-adjusted z-score is inactive: 0.374.
As for GGGUGAUGCUCAGUAGUCATT against BDNF, the median seed-adjusted z-score was inactive: 0.
The value for GGCAUACUUGGAUUCAACATT against CUL5 was inactive: 0.0143.
Consider ACCGAAUCAUUCGCACAGATT against NCBP2, for which the median seed-adjusted z-score is inactive: -0.247.
Take AGACCCACACUAAAGAAUUTT against EXOSC1: the median seed-adjusted z-score is inactive: 0.0508.
The value for GGGUCUGAAGAAUACACCATT against SRPRB was inactive: 0.000693; that for ACACCUCUCCGGACACCAATT against IRF3 was inactive: 0.0117.
The value for GUUGUAAGAUCAUAUCUUATT against AK3L1 was inactive: 0.0337; that for CAGCAACCAUGGAAAUCGATT against MYST4 was inactive: 0.138.
On to CACCUUAAAUGGGAGGGAATT against DIO3, for which the median seed-adjusted z-score was inactive: 0.0911.
Turning to GCCUUGAUCAAGUAACAGATT against PARD6B, the median seed-adjusted z-score was inactive: 0.315.
Take GAACAAGAGUGUGAUGUGATT against ARG1: the median seed-adjusted z-score was inactive: -0.108.
For the sequence CCACGACAGUUAUGUCCGATT against BLVRB, the median seed-adjusted z-score is inactive: 0.0133.
For GACUCUCGGAAAGAACAAATT against GABRA3, the median seed-adjusted z-score was inactive: -0.281.
To GGGAAGAUCCUGUACAUCUTT against PER2 belongs inactive: -0.113.
To GGCUCAAGGGCUUUGCUGATT against ADSSL1 belongs inactive: 0.0976; to AGGUGUACUUAGACCUGGATT against CHRNB1, inactive: 0.16; to AGAAUUUCCCUGACCUGGATT against CALY, inactive: 0.216.
As to CCCGGAAUGUGACAAAGGATT against RNPS1, the median seed-adjusted z-score was inactive: 0.
The value for GGCUGCCUAUAGACAGGAATT against GFAP was inactive: -0.312; that for CAAGGGUCCAGUUUCAGUCTT against ZNF655 was inactive: -0.156; that for GGAUGAGAGUCGAAUCUCUTT against AMPH was inactive: -0.725.
On to CCCGCAAGCUUAAAACCCATT against SNRK, for which the median seed-adjusted z-score was inactive: 0.463.
On to GAGCAUACUGUGGAUAAAATT against CA2, for which the median seed-adjusted z-score was inactive: 0.328.
To GAAGCACCUUAAAAAGAGUTT against DTX1 belongs inactive: -0.0757; to GUAAGAAUGCUGAAGAGUUTT against UBE2L3, inactive: 0.378; to CUGAUGUUAUUGACAAUGATT against PAICS, inactive: -0.725.
The value for GGAAAUCCUACUACCGAAATT against RBAK was inactive: 0; that for CGUCCAUCACGGAAACAUUTT against KCNMB2 was inactive: 0.
Take AGUAUUUAAUGAAACCCUATT against FUT4: the median seed-adjusted z-score is inactive: -0.24.
As for CCAUCCCAGGUCGAACAUATT against DHX8, the median seed-adjusted z-score is inactive: -0.251.
On to CCAAAGAUCAUACAUGGAATT against CASP3, for which the median seed-adjusted z-score is inactive: -0.874.
The value for CAUGGGUACUGGGUCCUCATT against BTNL8 was inactive: 0.0508.
The value for GCAAACAAGUGAUAGUGAUTT against RBM11 was inactive: -0.0341.
Turning to GAUGAAUCAUUAUUCGUGATT against AOX1, the median seed-adjusted z-score was inactive: -0.0717.
The value for GCCUAUAGCUCCAACCAGATT against HNF1B was inactive: -0.609; that for CGAAUAGACUUAAUGGACATT against KLHL8 was inactive: -0.835; that for CAUGUAACCAUCAAACUGATT against EPM2A was inactive: 0.319.
As for GGUGUUGUUUCAUCGUUUUTT against CCNL1, the median seed-adjusted z-score is active: -1.26.
On to GAUUGUCACUAUUCAGAGATT against DFNB31, for which the median seed-adjusted z-score was inactive: -0.233.
In the case of GGAAGGUUCAUAUCACAAATT against ADCY1, the median seed-adjusted z-score is inactive: 0.154.
On to CAAAAGAUGCUCAUGCUUUTT against MRPL39, for which the median seed-adjusted z-score was inactive: 0.355.
With GAUCAAGCCUGGGAUGACATT against METAP2, the median seed-adjusted z-score is inactive: 0.325.
With CCGUCUACAUCUGCACGGATT against XRCC3, the median seed-adjusted z-score is inactive: 0.332.
The value for GGGCUUACCUUGGAUGUCATT against LBXCOR1 was inactive: 0.0938; that for CCAGAAGCGAAUCACCACATT against POLR2F was active: -3.52; that for GGCACUAUUUCAUUAGUUUTT against GPR39 was inactive: 0.0998.
As to GCAAGAGGGUUGUAUAUUUTT against DUSP28, the median seed-adjusted z-score was inactive: 0.
As for GACUAUAAACAGUACGUGUTT against FLOT2, the median seed-adjusted z-score is inactive: 0.961.
For GCUGCGACCAGUUCAUUGATT against ABLIM2, the median seed-adjusted z-score was inactive: -0.26.
Take AGACCAUCCUAUACUGUGATT against KDELR2: the median seed-adjusted z-score was inactive: 0.
To CAAGAAGUCUGAAAACCCUTT against WBSCR22 belongs inactive: -0.21; to GCUCCACCACGGAGAUUGATT against KCNH6, inactive: 0.424; to CGGUCAUUCUGCUCAAGCATT against DIO2, inactive: -0.549.
In the case of GGACAGUAAGACCAAGAUUTT against PKN1, the median seed-adjusted z-score was inactive: -0.753.
As for GGAGAUGAACGGAUCCUUUTT against CHGA, the median seed-adjusted z-score is inactive: -0.0235.
As for GGCAAGUGCUUCACUCAAATT against ZNF665, the median seed-adjusted z-score is active: 1.13.
As for GAAGUGCACGCGAAACAGATT against ATAD3C, the median seed-adjusted z-score is inactive: -0.535.
To CGUCUGACUUCGCUAGCAATT against HOXD11 belongs inactive: -0.185; to GCUCCUACCUGAUCGUGUUTT against SLC13A2, inactive: 0.172.
The value for CGAUCACUUCCUACAGUCUTT against RGR was inactive: 0.217.
For the sequence CGGUACAGAUUAUCCCGAATT against B4GALT6, the median seed-adjusted z-score is inactive: 0.224.
Take GGAAUGAGGUUACUUUUUATT against NDUFC2: the median seed-adjusted z-score is inactive: -0.0481.
For the sequence GUCUACAGCCUGUACAUCUTT against PISD, the median seed-adjusted z-score was inactive: 0.231.
CAGUCUAAACUACGAAAUATT against NUP153: the median seed-adjusted z-score was inactive: -0.847.
Take GAACAGUGCUCGGGACUUUTT against CYP2C18: the median seed-adjusted z-score is inactive: 0.229.
The value for CCGGGAAAUUGAUUAUGCATT against SIN3B was inactive: 0.509; that for GAAGCUAACUUCUAUUAAATT against ARL5A was inactive: 0.
GCCUUAUCGCUGCAUCUAUTT against LAIR1: the median seed-adjusted z-score was inactive: -0.0897.
Take GACUGUUUAUUAGAGGAAUTT against PDE9A: the median seed-adjusted z-score is inactive: 0.708.
For the sequence GCGAAAAGAUGUCAAAGAATT against GNAT2, the median seed-adjusted z-score was inactive: 0.
Consider CGAACGAAAGGAUACGGUATT against BAI2, for which the median seed-adjusted z-score was inactive: -0.114.
Consider AGACCGAUGUGAAUGUGCATT against DIRAS3, for which the median seed-adjusted z-score is inactive: -0.419.
Consider GAACCGCACACUUCAGAAATT against AATF, for which the median seed-adjusted z-score was inactive: 0.182.
On to GGCAAUUCAUUGAUAGCAATT against MYH2, for which the median seed-adjusted z-score was inactive: -0.73.
To GCACCUAAUGAAUAAACGATT against ELOVL6 belongs inactive: 0.742; to CCUGAAUCCUUAGACUUAATT against PROX1, inactive: -0.372; to GUAUUUGAGUUACAACUGUTT against MBOAT2, inactive: -0.282.
The value for GCAGCUACUUUGUGCAGUUTT against CCBL1 was inactive: -0.0496; that for GGACGAAGCUGUUCUGGAUTT against F7 was inactive: 0.277.
With GCAUUGAACCUGACACCAUTT against AGK, the median seed-adjusted z-score is inactive: -0.312.
To GCAAUGACAUGGAGUAUGATT against KIF19 belongs inactive: 0.342; to ACUUCACUCUUUUGGUUAATT against P2RX4, inactive: 0.467; to AUAUCGACAGGAUAAAGGUTT against GNG2, inactive: 0.369.
As for CACCGAUAUUACUCAACUATT against EOMES, the median seed-adjusted z-score is inactive: -0.0248.
